From article PMC8661717
Results are given in words; binding and its absence hold for the method and conditions named.

Target: His6-MBP-tagged SARS-CoV-2 nonstructural protein 1 (nsp1), full length (SARS-CoV-2) (UniProt P0DTD1)
Experiment: pull-down; both purified

B1: Primase heterodimer Pri1–Pri2 (complex, UniProt P49642 1-420; P49643 1-509)
chain 1: METFDPTELPELLKLYYRRLFPYSQYYRWLNYGGVIKNYFQHREFSFTLKDDIYIRYQSFNNQSDLEKEMQKMNPYKIDIGAVYSHRPNQHNTVKLGAFQAQEKELVFDIDMTDYDDVRRCCSSADICPKCWTLMTMAIRIIDRALKEDFGFKHRLWVYSGRRGVHCWVCDESVRKLSSAVRSGIVEYLSLVKGGQDVKKKVHLSEKIHPFIRKSINIIKKYFEEYALVNQDILENKESWDKILALVPETIHDELQQSFQKSHNSLQRWEHLKKVASRYQNNIKNDKYGPWLEWEIMLQYCFPRLDINVSKGINHLLKSPFSVHPKTGRISVPIDLQKVDQFDPFTVPTISFICRELDAISTNEEEKEENEAESDVKHRTRDYKKTSLAPYVKVFEHFLENLDKSRKGELLKKSDLQKDF
chain 2: MEFSGRKWRKLRLAGDQRNASYPHCLQFYLQPPSENISLIEFENLAIDRVKLLKSVENLGVSYVKGTEQYQSKLESELRKLKFSYRENLEDEYEPRRRDHISHFILRLAYCQSEELRRWFIQQEMDLLRFRFSILPKDKIQDFLKDSQLQFEAISDEEKTLREQEIVASSPSLSGLKLGFESIYKIPFADALDLFRGRKVYLEDGFAYVPLKDIVAIILNEFRAKLSKALALTARSLPAVQSDERLQPLLNHLSHSYTGQDYSTQGNVGKISLDQIDLLSTKSFPPCMRQLHKALRENHHLRHGGRMQYGLFLKGIGLTLEQALQFWKQEFIKGKMDPDKFDKGYSYNIRHSFGKEGKRTDYTPFSCLKIILSNPPSQGDYHGCPFRHSDPELLKQKLQSYKISPGGISQILDLVKGTHYQVACQKYFEMIHNVDDCGFSLNHPNQFFCESQRILNGGKDIKKEPIQPETPQPKPSVQKTKDASSALASLNSSLEMDMEGLEDYFSEDS
In the case of B1, the binding is reported as “no binding”.
